Data as given in PubChem BioAssay AID1259308 (NCATS, 2017)

Screen: 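Knock-downs that increase output of a recombinant reporter protein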 (primary screen)
Cells: human HEK293 embryonic kidney cells stably expressing firefly luciferase (HEK-CMV-Luc2-Hygro)
Reagents: single siRNA against human genes, 0.8 pmol siRNA per well
Timing: 72 h
Detection: 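Reporter luminescence and viable-cell signal on separate replicate plates, given as percent of non-targeting control and median/MAD z-scores, plus per-cell luciferase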
Direction: total luciferase, z-score and total luciferase, % of control: higher = more reporter protein produced; luciferase per cell, z-score: higher = more reporter output per viable cell
Call rule: 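Active when the median/MAD z-score for overall luciferase is greater than 3; a gene was taken forward for validation with new siRNAs if at least two of its three siRNAs passed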
Meaning of the calls: active = raised luciferase; inactive = no rise
This is a random part of about 59,000 deposited reagents. About 1,510 of all reagents (2.6%) count as active. 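Calls use total luciferase alone and ignore viability, so some active siRNAs may act by altering cell number.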 Entries without a mark were called inactive. Reagents against one gene are numbered here. Further read-outs or replicates are left out here.

no.	target	reagent	total luciferase, z-score	total luciferase, % of control	luciferase per cell, z-score
1	F3	1	1.14	104	1.53
2	F3	2	0.0218	82.3	0.715
3	F3	3	0.42	90.2	0.76
4	SNORC	1	-0.345	75	-0.227
5	SNORC	2	0.342	88.7	-0.244
6	SNORC	3	2.66	135	3.2
7	LMO3	1	-0.0482	80.9	0.329
8	LMO3	2	-0.0489	80.9	-0.142
9	LMO3	3	0.949	101	0.549
10	ZNF225	1	2.41	130	1.39
11	ZNF225	2	2.8	138	1.97
12	ZNF225	3	-0.267	76.6	-0.717
13	TPP1	1	0.795	97.7	0.424
14	TPP1	2	0.543	92.7	-0.186
15	TPP1	3	-0.247	77	-0.267

2 entries already listed, ordered by “luciferase per cell, z-score”, ascending.
target	reagent	total luciferase, z-score	total luciferase, % of control	luciferase per cell, z-score
ZNF225	3	-0.267	76.6	-0.717
ZNF225	2	2.8	138	1.97

Continued.
no.	target	reagent	total luciferase, z-score	total luciferase, % of control	luciferase per cell, z-score
16	SEPTIN6	1	0.00591	82	0.61
17	SEPTIN6	2	1.5	112	3.75
18	SEPTIN6	3	-0.84	65.2	-0.827
19	DHX30	1	1.06	103	0.449
20	DHX30	2	-0.406	73.8	-0.28
21	DHX30	3	-2.15	39.1	-1.85
22	CCDC88B	1	0.0889	83.7	-0.526
23	CCDC88B	2	1.12	104	2.68
24	CCDC88B	3	0.00309	81.9	-0.125
